Assay results as given in paper doi:10.1101/2025.11.01.685922.
No constants are given. Whether binding was seen depends on the method and setting. In cells and extracts the contact can be indirect. Some results given as binding are weak or reduced against the parent protein; the word gives no strength. For some assays here: Sequences can lack the tags named with a protein.

The chains behind the UniProt entries cited, without tags or fusion partners. Where a name states a change or a piece, a line headed by the entry shows the natural chain unless it says otherwise. Residues count along the entry.
UniProt P61586: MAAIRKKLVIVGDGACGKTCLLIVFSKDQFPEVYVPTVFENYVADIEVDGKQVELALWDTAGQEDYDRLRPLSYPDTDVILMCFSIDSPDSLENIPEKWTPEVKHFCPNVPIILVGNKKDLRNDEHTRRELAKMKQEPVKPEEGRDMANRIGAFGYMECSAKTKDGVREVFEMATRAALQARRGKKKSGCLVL
UniProt Q9DBC7: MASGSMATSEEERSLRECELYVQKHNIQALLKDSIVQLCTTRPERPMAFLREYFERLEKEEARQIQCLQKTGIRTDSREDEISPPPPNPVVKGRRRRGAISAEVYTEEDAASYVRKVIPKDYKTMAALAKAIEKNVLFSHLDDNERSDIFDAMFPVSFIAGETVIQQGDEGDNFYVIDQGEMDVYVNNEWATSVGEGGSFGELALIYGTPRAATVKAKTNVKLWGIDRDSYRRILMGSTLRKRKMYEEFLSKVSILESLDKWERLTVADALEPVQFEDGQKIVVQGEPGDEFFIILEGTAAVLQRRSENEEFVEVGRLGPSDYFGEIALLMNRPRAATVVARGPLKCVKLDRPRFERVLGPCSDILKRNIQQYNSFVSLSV
UniProt P10644, residues 1-93: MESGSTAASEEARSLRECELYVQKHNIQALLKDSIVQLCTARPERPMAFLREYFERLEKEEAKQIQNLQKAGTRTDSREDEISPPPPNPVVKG

T1: FAM134B, endogenous in PDAC cells (mouse (endogenous in PDAC KPC cells)) (UniProt Q8VE91)
T1 sequence: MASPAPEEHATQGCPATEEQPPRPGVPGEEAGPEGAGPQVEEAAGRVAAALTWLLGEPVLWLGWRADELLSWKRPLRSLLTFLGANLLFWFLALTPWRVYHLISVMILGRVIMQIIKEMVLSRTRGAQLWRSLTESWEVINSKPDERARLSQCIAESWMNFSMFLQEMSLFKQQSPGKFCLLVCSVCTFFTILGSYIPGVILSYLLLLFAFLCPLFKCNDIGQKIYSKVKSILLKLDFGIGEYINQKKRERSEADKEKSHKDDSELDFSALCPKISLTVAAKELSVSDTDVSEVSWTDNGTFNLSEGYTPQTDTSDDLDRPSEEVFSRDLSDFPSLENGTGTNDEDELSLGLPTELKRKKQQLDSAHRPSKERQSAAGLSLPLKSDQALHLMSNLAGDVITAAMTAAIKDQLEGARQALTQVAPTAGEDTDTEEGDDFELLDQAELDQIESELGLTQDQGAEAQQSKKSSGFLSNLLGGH

T2: FAM134B-V5, wild-type full-length (FL), stably expressed in PDAC cells (mouse) (UniProt Q8VE91)
T2 sequence: T1 sequence

T3: FAM134C precipitated from PDAC cells (Figs. S3B, S5D-E) (UniProt Q9CQV4)
T3 sequence: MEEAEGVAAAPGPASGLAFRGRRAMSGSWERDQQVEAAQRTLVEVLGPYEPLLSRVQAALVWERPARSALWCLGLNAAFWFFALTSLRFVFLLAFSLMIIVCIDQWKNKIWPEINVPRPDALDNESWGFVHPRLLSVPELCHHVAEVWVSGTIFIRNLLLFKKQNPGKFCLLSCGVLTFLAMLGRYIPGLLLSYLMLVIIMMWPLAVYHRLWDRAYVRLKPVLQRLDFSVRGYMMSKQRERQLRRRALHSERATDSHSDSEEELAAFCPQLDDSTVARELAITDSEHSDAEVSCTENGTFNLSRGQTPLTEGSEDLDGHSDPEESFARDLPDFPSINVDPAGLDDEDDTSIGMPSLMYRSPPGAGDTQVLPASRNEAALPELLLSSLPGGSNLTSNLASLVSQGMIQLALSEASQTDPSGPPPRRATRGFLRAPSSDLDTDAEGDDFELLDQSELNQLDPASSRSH

B1: FAM134B-V5 expressed in HEK293FT cells (receptor, UniProt Q8VE91 1-480)
chain: T1 sequence
B2: FAM134C-V5 expressed in HEK293FT cells (receptor, UniProt Q9CQV4 1-466)
chain: T3 sequence

How the values were obtained:
Experiment in all cases: co-IP
[1] = target: T1, FAM134B, endogenous in PDAC cells (mouse (endogenous in PDAC KPC cells))
[2] = target: T2, FAM134B-V5, wild-type full-length (FL), stably expressed in PDAC cells (mouse)
[3] = target: T3, FAM134C precipitated from PDAC cells (Figs. S3B, S5D-E)
[4] = target: FLAG-RhoA T19N (inactive, GTP-binding deficient) (UniProt P61586)
FLAG-RhoA WT = FLAG-RhoA WT (UniProt P61586)

Molecule | binding [1] | binding [2] | binding [3] | binding [4] | binding (FLAG-RhoA WT)
PRKAR1A, endogenous in PDAC cells (from UniProt Q9DBC7 1-381) | binds | binds | binds |  | 
GFP-PRKAR1A NT (N-terminal 93 amino acids) (from UniProt P10644 1-93) (domain or fragment) |  | binds |  |  | 
B1 |  |  |  | binds | binds
B2 |  |  |  | binds | binds
